No constants are given. Whether binding was seen depends on the method and setting. In cells and extracts the contact can be indirect. Some binding calls cover weakened binding; strength is not graded here.
Target: Endogenous hUbc12 (Homo sapiens) (UniProt P61081)
Assay: co-immunoprecipitation from 293T cells, LC-MS/MS

By UniProt entry, the sequences of proteins in these tests, tags left out. Where a name states a change or a piece, a line headed by the entry shows the natural chain unless it says otherwise.
UniProt P61081: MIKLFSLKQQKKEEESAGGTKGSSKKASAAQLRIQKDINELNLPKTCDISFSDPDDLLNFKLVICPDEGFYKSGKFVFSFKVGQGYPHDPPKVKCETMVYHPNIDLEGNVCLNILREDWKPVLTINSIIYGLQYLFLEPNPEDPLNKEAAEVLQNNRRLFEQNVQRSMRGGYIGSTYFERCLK
UniProt P29595: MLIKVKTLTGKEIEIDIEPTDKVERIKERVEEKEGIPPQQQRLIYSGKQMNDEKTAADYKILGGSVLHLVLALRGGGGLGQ

binding: binds
Substance: TAP-hNedd8 (from UniProt P29595 1-76)

— patent publication US20140179593A1 (published 2014)
